The text below walks through data of patent publication EP1662255A2 (THE JOHNS HOPKINS UNIVERSITY SCHOOL OF MEDICINE, dated 2006).

Results are given in words; binding and its absence hold for the method and conditions named. Binding seen in cells or lysates may run through a third protein. Binding calls can cover weak binding; strength is not graded here. Sequences can lack the tags named with a protein.

This experiment deals with T1, carboxy-terminal 347 amino acids of GKAP-3 (amino-terminal myc tag) (rat) (UniProt P97838).
T1 sequence (looked up): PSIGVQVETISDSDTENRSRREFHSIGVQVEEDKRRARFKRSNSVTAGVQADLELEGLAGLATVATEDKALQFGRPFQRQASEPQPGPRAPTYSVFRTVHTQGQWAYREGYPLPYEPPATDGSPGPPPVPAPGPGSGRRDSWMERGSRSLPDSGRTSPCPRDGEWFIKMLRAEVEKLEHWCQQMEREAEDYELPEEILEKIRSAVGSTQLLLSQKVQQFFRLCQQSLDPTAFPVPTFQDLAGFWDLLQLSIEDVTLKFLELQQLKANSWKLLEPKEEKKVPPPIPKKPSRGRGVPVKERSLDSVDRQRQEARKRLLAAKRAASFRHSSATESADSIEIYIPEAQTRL
The experiment in a line: GST pulldown from HEK293 lysate.

For the substance “GST fusion of Shank3 PDZ domain (residues 559-673)”, the binding result is “binds”.
